These are yes or no findings as the source states them, for the method shown. Some binding calls cover weakened binding; strength is not graded here.
Target: T1, IRF3 (mouse (endogenous in MEFs)), P70671
T1 chain: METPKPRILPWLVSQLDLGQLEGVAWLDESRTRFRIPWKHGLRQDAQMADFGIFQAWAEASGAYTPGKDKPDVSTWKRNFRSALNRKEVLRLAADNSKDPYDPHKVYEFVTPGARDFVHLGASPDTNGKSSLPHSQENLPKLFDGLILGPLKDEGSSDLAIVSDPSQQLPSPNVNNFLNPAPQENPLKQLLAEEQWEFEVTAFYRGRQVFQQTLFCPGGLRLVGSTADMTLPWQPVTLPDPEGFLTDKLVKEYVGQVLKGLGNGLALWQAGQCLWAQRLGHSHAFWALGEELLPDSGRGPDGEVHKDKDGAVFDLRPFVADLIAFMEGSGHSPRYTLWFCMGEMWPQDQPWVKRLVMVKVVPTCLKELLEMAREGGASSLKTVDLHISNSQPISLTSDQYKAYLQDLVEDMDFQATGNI
Experiment: native gel or EMSA
Conditions: remark: other sources report otherwise

- binding: binds
B1: IRF3, P70671 1-419 (protein)
chain: METPKPRILPWLVSQLDLGQLEGVAWLDESRTRFRIPWKHGLRQDAQMADFGIFQAWAEASGAYTPGKDKPDVSTWKRNFRSALNRKEVLRLAADNSKDPYDPHKVYEFVTPGARDFVHLGASPDTNGKSSLPHSQENLPKLFDGLILGPLKDEGSSDLAIVSDPSQQLPSPNVNNFLNPAPQENPLKQLLAEEQWEFEVTAFYRGRQVFQQTLFCPGGLRLVGSTADMTLPWQPVTLPDPEGFLTDKLVKEYVGQVLKGLGNGLALWQAGQCLWAQRLGHSHAFWALGEELLPDSGRGPDGEVHKDKDGAVFDLRPFVADLIAFMEGSGHSPRYTLWFCMGEMWPQDQPWVKRLVMVKVVPTCLKELLEMAREGGASSLKTVDLHISNSQPISLTSDQYKAYLQDLVEDMDFQATGNI

From article PMC5427825
